{"source": "PubChem BioAssay AID1224830 (NIAID, 2016)", "screen": "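Host factors that control LPS-induced TNF expression in human macrophages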 (primary screen)", "cell system": "human THP-1 monocytic leukaemia cells, TNF dual-luciferase reporter clone, PMA-differentiated to macrophage-like cells", "knock-down reagent": "siRNA pool against human genes, 50 nM", "timing": "LPS for 4 h, given about 3 days after siRNA transfection", "treatment": "bacterial LPS (TLR4 ligand), 10 ng/ml", "measured": "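Ratio of firefly to renilla light, scaled to the plate median and expressed as a robust z-score per replicate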", "direction": "TNF reporter robust z-score: higher = stronger TNF reporter response to LPS", "call rule": "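a well is active when its z-score exceeds 2.8 or falls below -1.5; control wells carry no call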", "note": "In all, the deposit lists about 18,000 reagents; this is a random part of them. Over the whole deposit, about 2,900 (16%) were called active. 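Calls are made per well; low scores hint the gene aids the LPS response, high scores that it dampens it.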 Repeated entries: four replicate wells of each siRNA pool. No sequences are given here."}
The first 2 entries as a preview:
{"gene":"IK","TNF reporter robust z-score":-1.82,"Outcome":"active"}
{"gene":"IK","TNF reporter robust z-score":-1.29,"Outcome":"inactive"}

Main list, from the first entry:
{"gene":"IK","TNF reporter robust z-score":-1.82,"Outcome":"active"}
{"gene":"IK","TNF reporter robust z-score":-1.29,"Outcome":"inactive"}
{"gene":"IK","TNF reporter robust z-score":-0.98,"Outcome":"inactive"}
{"gene":"IK","TNF reporter robust z-score":-1.44,"Outcome":"inactive"}
{"gene":"TM4SF1","TNF reporter robust z-score":3.76,"Outcome":"active"}
{"gene":"TM4SF1","TNF reporter robust z-score":2.89,"Outcome":"active"}
{"gene":"TM4SF1","TNF reporter robust z-score":2.92,"Outcome":"active"}
{"gene":"TM4SF1","TNF reporter robust z-score":0.08,"Outcome":"inactive"}
{"gene":"C1QTNF2","TNF reporter robust z-score":-0.53,"Outcome":"inactive"}
{"gene":"C1QTNF2","TNF reporter robust z-score":-0.89,"Outcome":"inactive"}
{"gene":"C1QTNF2","TNF reporter robust z-score":-0.48,"Outcome":"inactive"}
{"gene":"C1QTNF2","TNF reporter robust z-score":-1.05,"Outcome":"inactive"}
{"gene":"SLC6A15","TNF reporter robust z-score":0.26,"Outcome":"inactive"}
{"gene":"SLC6A15","TNF reporter robust z-score":0.07,"Outcome":"inactive"}
{"gene":"SLC6A15","TNF reporter robust z-score":-0.39,"Outcome":"inactive"}
{"gene":"SLC6A15","TNF reporter robust z-score":-0.9,"Outcome":"inactive"}
{"gene":"MSANTD2","TNF reporter robust z-score":-0.96,"Outcome":"inactive"}
{"gene":"MSANTD2","TNF reporter robust z-score":-0.28,"Outcome":"inactive"}
{"gene":"MSANTD2","TNF reporter robust z-score":-0.38,"Outcome":"inactive"}
{"gene":"MSANTD2","TNF reporter robust z-score":-0.35,"Outcome":"inactive"}
{"gene":"CPSF4","TNF reporter robust z-score":0.81,"Outcome":"inactive"}
{"gene":"CPSF4","TNF reporter robust z-score":0.52,"Outcome":"inactive"}
{"gene":"CPSF4","TNF reporter robust z-score":-0.1,"Outcome":"inactive"}
{"gene":"CPSF4","TNF reporter robust z-score":0.95,"Outcome":"inactive"}
{"gene":"DLEC1","TNF reporter robust z-score":2.13,"Outcome":"inactive"}
{"gene":"DLEC1","TNF reporter robust z-score":0.44,"Outcome":"inactive"}
{"gene":"DLEC1","TNF reporter robust z-score":0.13,"Outcome":"inactive"}
{"gene":"DLEC1","TNF reporter robust z-score":1.83,"Outcome":"inactive"}
{"gene":"DCAF15","TNF reporter robust z-score":0.76,"Outcome":"inactive"}
{"gene":"DCAF15","TNF reporter robust z-score":2.3,"Outcome":"inactive"}
{"gene":"DCAF15","TNF reporter robust z-score":1.35,"Outcome":"inactive"}
{"gene":"DCAF15","TNF reporter robust z-score":0.32,"Outcome":"inactive"}
